In PubChem BioAssay AID1439 (NMMLSC, 2008):
Screen size: about 220,000 compounds; about 770 (0.35%) were called active. The inconclusive results got no clear call from the source; some entries with a clear call stand among them for comparison. No stated cut-off is given here; in the data, active means binding response below about 49% or above about 150%; inconclusive means no clear call, values can overlap the other calls; inactive means in between.

Protein sequences, listed by entry. Tags and fused reporters are not part of them.
UniProt P09471, whole entry, looked up: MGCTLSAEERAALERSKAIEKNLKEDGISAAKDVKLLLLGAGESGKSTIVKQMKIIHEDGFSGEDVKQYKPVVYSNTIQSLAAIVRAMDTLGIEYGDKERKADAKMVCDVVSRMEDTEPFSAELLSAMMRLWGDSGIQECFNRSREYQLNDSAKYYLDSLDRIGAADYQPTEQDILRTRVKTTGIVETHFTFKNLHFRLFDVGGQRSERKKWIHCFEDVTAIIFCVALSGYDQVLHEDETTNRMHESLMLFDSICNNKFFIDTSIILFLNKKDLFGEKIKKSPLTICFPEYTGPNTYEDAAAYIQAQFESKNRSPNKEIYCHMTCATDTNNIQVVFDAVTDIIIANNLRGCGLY

Target: Guanine nucleotide-binding protein G(o) subunit alpha (Homo sapiens) (UniProt P09471)
Assay: RGS7-Galphao binding modulators, primary screen, biochemical, multiplexed bead flow cytometry (AID 1439);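 further: fluorescent Galphao held in activated GDP-AlF4 state binding bead-coupled RGS7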
Details: at 10 µM, actives lie on both sides

SMILES | binding response (% of control)
COc1ccc(N2C(=O)C3CCCN3C2c2ccc(C)o2)cc1 (centres undefined) | inconclusive: 97.2%
O=C(c1ccccc1Cl)N1CCC(n2cccc2)CC1 | inconclusive: 102%
Cc1cc(C(=O)NCCN2CCOCC2)ccc1[N+](=O)[O-] | inactive: 88.8%
COc1ccc(CNCCC2(C(C)C)CCOC(C)(C)C2)cc1 (centres undefined) | inconclusive: 101%
O=c1cc(CSc2nnc(COc3cccc4ccccc34)o2)c2ccccc2[nH]1 | inconclusive: 133%
Cc1cc(C)cc(N2C(=O)CCN(Cc3ccccc3)C2=O)c1 | inconclusive: 93.7%
O=C(/C=C/c1cccs1)Nc1nncs1 | inconclusive: 95.2%
Cc1cc(C)n(C(=O)COc2ccc([N+](=O)[O-])cc2)n1 | inactive: 102%
COC(=O)c1cnc(Oc2c(Cl)cc(N)cc2Cl)cc1C(F)(F)F | inconclusive: 105%
CCn1c(SCC(N)=O)nc2sc3c(c2c1=O)CCN(C)C3 | inconclusive: 461%
O=C1C2N=NN(CC(=O)N3N=C(c4ccccc4)CC3c3ccc([N+](=O)[O-])cc3)C2C(=O)N1c1ccccc1 (centres undefined) | inconclusive: 111%
Cc1c(Cc2ccccc2)c(=O)n2c([nH]c3ccccc32)c1C#N | inconclusive: 77.1%
COc1ccc(CCN2C(=O)CC(NNc3ccc([N+](=O)[O-])cc3)C2=O)cc1OC (centres undefined) | inactive: 95%
Brc1ccc(CNc2cc3c(cc2Br)OCCO3)cc1 | inconclusive: 91.7%
CCOC(=O)c1c(N2C(=O)CC(Sc3ccccc3C(=O)O)C2=O)sc2c1CCCC2 (centres undefined) | inactive: 94.2%
Cc1ccc(NC(=O)C[n+]2ccn(C3=C([O-])c4ccccc4C3=O)c2)cc1 | inconclusive: 94.6%
Cc1ccc(C(=O)N2CCc3ccccc32)cc1NC(=O)c1ccco1 | inconclusive: 106%
CCOCCCn1c(=S)[nH]c2cc(C(=O)NCC(OC)OC)ccc2c1=O | inactive: 95.2%
NC(C(=O)O)C(c1ccccc1)C(F)F (centres undefined) | inconclusive: 114%
CN(C)CCCN(Cc1ccccc1)C(=S)NCc1ccccc1 | inconclusive: 104%

SMILES | binding response (% of control)
CCN(CC)c1ccc(/C=N/NC(=O)c2ccc3nc[nH]c3c2)c(O)c1 | inconclusive: 86.3%
CCCOc1ccc(OCCn2nc(C(=O)O)c3ccccc3c2=O)cc1 | inactive: 106%
CC1(C)Cc2nc(-c3ccccc3)nc(NNC(=O)c3ccco3)c2CO1 | inconclusive: 93.7%
CC(C)COP(=O)(OCC(C)C)C(O)c1ccc(N(C)C)cc1 (centres undefined) | inconclusive: 35%
OC(COc1ccc(-c2ccccc2)cc1)CN1CCOCC1 (centres undefined) | inactive: 104%
Cc1csc2c(NCCCN3CCOCC3)ncnc12 | inconclusive: 117%
COc1ccc(OCC(=O)NNC(=O)c2c(-c3ccccc3Cl)noc2C)cc1 | inconclusive: 33.4%
Cc1nn(CC(=O)Nc2ccc(S(=O)(=O)N(C)C)cc2)c(C)c1[N+](=O)[O-] | inactive: 103%
O=C(NCCc1ccccn1)c1cccnc1Oc1ccc(Cl)cc1 | inconclusive: 128%
Cc1ccc(NC(=O)CCC(=O)N/N=C/c2cccs2)cc1 | inactive: 109%
COc1ccc(NC(=O)N2CCCCCC2)cc1 | inconclusive: 125%
COc1ccc(NC(=O)Cn2cnc3ccccc3c2=O)cc1OC | inactive: 93.5%
COc1ccccc1NC(=O)c1cc(C)oc1C | inconclusive: 97.1%
CCOCCCNC(C(=O)Nc1ccc(OC)c(Cl)c1)c1ccccc1 (centres undefined) | inconclusive: 116%
O=C(COC(=O)/C=C/c1ccc(Cl)cc1Cl)NCc1ccco1 | inconclusive: 89.6%
Nc1nc(Nc2cccc(Cl)c2)n[nH]1 | inconclusive: 120%
O=C(Nc1ccccc1)N1CCCN(c2nccc(C(F)(F)F)n2)CC1 | inconclusive: 67.7%
Cn1nnc(NC(=S)NC(=O)c2ccccc2)n1 | inconclusive: 169%
CN(CC(=O)Nc1ccc(S(=O)(=O)N2CCCC2)cc1)CC(=O)Nc1cccc(F)c1 | inactive: 97.3%
Cc1onc(-c2ccc(Cl)cc2Cl)c1C(=O)/C=C/N(C)C | inconclusive: 76.3%

Rewritten comma-delimited: part of the list above.
SMILES,binding response (% of control)
CCCOc1ccc(OCCn2nc(C(=O)O)c3ccccc3c2=O)cc1,inactive: 106%
CC1(C)Cc2nc(-c3ccccc3)nc(NNC(=O)c3ccco3)c2CO1,inconclusive: 93.7%
CC(C)COP(=O)(OCC(C)C)C(O)c1ccc(N(C)C)cc1 (centres undefined),inconclusive: 35%

Following part.

SMILES | binding response (% of control)
Cc1nc2ccccc2c(=O)n1Cc1ccco1 | inconclusive: 216%
CN1CCN(C(=O)C2=C[C@@H](c3ccccc3)C[C@@H](OCCCCO)O2)CC1 | inactive: 100%
O=C(CSc1nnc(-c2ccc(C(F)(F)F)cn2)o1)Nc1cccc(Cl)c1 | inconclusive: 138%
CC(Nc1nc2ccccc2n2cnnc12)c1ccccc1 (centres undefined) | inconclusive: 79.8%
Cc1cc(NC(=O)c2c(-c3ccccc3Cl)noc2C)no1 | inactive: 97.7%
COc1ccc(OC)c(C(=O)NC(CC(N)=O)c2ccc(N3CCC(N4CCCC4)CC3)c([N+](=O)[O-])c2)c1 (centres undefined) | inconclusive: 91.1%
N#C/C(=C/c1cccc([N+](=O)[O-])c1)C(=O)Nc1ccccc1O | inconclusive: 407%
CC(=O)c1cc(CN2CCN(CC=C(C)C)C(CCO)C2)cs1 (centres undefined) | inactive: 103%
Cc1nc2cc(-c3ccccc3)nn2c(C)c1CCC(=O)NC(C)c1ccc2c(c1)OCCO2 (centres undefined) | inactive: 95.8%
C/C(=N\Nc1cccc(Cl)c1)c1ccncc1 | inconclusive: 110%
O=C(Cc1ccccc1[N+](=O)[O-])NCCCN1CCOCC1 | inconclusive: 133%
COc1ccc(CCNc2cc(N3CCN(C(=O)c4ccc(C)cc4)CC3)ccc2[N+](=O)[O-])cc1OC | inactive: 95%
Cc1ccc(Nc2nnc(SCC(=O)Nc3cc(C(=O)O)ccc3C)s2)c(C)c1 | inconclusive: 73.8%
COc1ccccc1NC(=O)c1c(N=Cc2c(O)ccc3ccccc23)cnn1C | inconclusive: 109%
Cc1ccc(S(=O)(=O)NNC(=O)c2c(O)c3ccccc3[nH]c2=O)cc1 | inconclusive: 172%
Cc1cccc(OCC(=O)N2CCOCC2)c1 | active: 271% [activator]
c1ccc(-c2nccc(-c3ccc4c(c3)OCO4)n2)cc1 | inconclusive: 111%
Clc1ccccc1N=C1NN=C(c2cccs2)CS1 | inactive: 100%
COc1ccc(CN(Cc2cccnc2)S(=O)(=O)c2ccc(-n3cnnn3)c(C)c2)cc1OC | inactive: 98.2%
